Drawing on the supplement of paper PMC10849652, this text covers log2 fold change for eight targets.

Amino acid sequences for entries named in this document (tags omitted). A change or cut given only in a name is not applied to a line headed by its entry.
UniProt P55160: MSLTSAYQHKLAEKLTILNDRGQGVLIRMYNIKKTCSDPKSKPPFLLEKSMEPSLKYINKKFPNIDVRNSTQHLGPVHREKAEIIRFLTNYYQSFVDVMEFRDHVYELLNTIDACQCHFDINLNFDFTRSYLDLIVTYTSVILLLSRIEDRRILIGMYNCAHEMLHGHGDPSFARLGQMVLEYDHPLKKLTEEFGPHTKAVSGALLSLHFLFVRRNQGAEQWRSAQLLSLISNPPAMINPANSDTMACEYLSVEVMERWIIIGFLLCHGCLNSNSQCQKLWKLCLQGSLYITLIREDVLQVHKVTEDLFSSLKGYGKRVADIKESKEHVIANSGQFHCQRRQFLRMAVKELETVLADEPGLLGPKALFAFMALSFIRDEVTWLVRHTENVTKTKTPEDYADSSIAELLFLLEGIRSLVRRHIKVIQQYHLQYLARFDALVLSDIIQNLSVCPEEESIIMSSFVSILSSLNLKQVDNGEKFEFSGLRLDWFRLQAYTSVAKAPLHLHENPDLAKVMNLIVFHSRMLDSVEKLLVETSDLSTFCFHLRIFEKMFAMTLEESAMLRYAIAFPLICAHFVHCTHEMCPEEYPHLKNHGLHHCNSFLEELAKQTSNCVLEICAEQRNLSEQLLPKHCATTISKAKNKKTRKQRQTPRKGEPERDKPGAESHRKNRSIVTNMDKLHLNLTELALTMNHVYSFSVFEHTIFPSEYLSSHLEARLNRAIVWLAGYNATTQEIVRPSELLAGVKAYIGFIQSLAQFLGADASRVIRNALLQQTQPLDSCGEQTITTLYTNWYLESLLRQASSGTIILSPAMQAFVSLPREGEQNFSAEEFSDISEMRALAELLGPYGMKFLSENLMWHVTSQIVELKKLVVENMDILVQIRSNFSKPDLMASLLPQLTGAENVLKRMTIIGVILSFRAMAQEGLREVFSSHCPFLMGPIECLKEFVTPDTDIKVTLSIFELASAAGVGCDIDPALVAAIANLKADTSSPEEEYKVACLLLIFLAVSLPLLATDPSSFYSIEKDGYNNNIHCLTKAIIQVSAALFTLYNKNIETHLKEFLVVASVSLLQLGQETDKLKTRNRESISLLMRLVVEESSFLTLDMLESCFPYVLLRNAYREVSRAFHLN
UniProt G3V1V0: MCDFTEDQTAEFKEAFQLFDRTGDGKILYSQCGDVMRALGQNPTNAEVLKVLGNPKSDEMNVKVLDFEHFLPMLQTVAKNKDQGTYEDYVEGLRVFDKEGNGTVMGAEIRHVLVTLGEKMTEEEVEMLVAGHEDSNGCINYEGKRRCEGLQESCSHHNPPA
UniProt Q32MK0: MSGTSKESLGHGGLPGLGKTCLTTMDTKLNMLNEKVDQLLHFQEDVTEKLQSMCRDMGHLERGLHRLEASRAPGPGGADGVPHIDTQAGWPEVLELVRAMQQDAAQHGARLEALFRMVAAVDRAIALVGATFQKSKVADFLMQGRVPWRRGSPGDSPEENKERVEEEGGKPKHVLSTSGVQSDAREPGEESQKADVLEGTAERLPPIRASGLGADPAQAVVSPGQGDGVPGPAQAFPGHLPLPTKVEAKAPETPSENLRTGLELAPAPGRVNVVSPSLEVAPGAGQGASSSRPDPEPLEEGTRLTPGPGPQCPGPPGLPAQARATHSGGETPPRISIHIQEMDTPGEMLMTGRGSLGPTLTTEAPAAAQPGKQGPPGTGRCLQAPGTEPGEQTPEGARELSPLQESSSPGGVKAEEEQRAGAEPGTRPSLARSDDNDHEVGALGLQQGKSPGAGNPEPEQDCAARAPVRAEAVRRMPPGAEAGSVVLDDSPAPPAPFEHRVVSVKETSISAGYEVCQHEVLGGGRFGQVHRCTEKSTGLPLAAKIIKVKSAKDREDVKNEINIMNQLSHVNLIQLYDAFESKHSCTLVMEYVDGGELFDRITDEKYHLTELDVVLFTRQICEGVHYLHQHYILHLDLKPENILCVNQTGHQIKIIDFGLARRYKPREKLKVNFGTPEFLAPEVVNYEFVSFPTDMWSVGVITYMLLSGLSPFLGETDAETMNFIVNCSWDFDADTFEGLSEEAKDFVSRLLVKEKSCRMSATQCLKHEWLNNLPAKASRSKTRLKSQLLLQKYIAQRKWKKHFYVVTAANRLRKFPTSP
NBDY, A0A0U1RRE5, UniProt A0A0U1RRE5, whole entry, looked up: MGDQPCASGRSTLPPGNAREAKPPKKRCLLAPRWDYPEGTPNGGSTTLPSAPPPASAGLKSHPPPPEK
UniProt Q86UW6: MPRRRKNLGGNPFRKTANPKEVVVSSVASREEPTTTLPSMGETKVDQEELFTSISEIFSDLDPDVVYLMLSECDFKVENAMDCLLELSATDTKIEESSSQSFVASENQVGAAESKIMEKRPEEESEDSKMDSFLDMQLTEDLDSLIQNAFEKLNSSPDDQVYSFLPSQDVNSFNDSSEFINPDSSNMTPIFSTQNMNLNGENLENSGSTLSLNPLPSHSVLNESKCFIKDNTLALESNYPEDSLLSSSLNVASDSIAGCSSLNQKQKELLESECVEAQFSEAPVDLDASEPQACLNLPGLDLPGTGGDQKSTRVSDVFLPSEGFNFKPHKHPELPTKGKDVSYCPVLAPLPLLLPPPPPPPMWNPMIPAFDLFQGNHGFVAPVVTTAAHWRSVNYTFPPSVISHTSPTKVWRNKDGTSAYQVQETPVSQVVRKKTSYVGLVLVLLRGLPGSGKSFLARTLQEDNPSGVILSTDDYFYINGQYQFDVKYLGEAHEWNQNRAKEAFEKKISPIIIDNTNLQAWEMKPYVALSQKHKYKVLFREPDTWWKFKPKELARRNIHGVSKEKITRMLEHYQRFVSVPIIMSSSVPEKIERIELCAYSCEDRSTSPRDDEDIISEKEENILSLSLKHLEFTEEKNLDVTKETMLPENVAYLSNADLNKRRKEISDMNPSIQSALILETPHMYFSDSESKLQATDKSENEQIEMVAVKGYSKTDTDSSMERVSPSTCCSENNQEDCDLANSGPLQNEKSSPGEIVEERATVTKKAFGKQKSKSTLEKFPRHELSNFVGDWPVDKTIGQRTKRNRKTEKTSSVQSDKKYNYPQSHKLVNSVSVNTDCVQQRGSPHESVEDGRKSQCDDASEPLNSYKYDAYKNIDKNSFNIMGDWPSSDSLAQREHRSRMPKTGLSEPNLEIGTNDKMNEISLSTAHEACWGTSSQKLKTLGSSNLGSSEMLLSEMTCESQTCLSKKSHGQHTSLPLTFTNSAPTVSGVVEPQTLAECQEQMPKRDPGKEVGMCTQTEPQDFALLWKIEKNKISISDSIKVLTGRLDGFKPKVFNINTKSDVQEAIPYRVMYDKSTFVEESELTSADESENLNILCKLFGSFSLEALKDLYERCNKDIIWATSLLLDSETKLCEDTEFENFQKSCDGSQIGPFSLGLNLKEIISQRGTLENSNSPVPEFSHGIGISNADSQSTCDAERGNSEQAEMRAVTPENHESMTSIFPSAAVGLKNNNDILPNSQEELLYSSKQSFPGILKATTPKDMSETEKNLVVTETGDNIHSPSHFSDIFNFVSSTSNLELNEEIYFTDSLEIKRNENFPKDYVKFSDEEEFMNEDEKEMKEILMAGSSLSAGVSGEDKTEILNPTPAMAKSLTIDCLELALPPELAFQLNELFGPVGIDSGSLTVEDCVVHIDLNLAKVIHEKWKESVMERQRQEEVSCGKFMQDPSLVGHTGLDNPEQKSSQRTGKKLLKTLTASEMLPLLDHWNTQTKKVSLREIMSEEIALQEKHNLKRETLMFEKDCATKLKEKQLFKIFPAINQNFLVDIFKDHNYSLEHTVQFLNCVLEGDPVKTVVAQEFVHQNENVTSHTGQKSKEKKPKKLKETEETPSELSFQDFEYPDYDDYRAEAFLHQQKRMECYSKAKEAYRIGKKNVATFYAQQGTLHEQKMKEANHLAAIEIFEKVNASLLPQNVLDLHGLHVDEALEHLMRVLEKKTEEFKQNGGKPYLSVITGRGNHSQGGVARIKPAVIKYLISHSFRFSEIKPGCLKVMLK
UniProt B2RTY4: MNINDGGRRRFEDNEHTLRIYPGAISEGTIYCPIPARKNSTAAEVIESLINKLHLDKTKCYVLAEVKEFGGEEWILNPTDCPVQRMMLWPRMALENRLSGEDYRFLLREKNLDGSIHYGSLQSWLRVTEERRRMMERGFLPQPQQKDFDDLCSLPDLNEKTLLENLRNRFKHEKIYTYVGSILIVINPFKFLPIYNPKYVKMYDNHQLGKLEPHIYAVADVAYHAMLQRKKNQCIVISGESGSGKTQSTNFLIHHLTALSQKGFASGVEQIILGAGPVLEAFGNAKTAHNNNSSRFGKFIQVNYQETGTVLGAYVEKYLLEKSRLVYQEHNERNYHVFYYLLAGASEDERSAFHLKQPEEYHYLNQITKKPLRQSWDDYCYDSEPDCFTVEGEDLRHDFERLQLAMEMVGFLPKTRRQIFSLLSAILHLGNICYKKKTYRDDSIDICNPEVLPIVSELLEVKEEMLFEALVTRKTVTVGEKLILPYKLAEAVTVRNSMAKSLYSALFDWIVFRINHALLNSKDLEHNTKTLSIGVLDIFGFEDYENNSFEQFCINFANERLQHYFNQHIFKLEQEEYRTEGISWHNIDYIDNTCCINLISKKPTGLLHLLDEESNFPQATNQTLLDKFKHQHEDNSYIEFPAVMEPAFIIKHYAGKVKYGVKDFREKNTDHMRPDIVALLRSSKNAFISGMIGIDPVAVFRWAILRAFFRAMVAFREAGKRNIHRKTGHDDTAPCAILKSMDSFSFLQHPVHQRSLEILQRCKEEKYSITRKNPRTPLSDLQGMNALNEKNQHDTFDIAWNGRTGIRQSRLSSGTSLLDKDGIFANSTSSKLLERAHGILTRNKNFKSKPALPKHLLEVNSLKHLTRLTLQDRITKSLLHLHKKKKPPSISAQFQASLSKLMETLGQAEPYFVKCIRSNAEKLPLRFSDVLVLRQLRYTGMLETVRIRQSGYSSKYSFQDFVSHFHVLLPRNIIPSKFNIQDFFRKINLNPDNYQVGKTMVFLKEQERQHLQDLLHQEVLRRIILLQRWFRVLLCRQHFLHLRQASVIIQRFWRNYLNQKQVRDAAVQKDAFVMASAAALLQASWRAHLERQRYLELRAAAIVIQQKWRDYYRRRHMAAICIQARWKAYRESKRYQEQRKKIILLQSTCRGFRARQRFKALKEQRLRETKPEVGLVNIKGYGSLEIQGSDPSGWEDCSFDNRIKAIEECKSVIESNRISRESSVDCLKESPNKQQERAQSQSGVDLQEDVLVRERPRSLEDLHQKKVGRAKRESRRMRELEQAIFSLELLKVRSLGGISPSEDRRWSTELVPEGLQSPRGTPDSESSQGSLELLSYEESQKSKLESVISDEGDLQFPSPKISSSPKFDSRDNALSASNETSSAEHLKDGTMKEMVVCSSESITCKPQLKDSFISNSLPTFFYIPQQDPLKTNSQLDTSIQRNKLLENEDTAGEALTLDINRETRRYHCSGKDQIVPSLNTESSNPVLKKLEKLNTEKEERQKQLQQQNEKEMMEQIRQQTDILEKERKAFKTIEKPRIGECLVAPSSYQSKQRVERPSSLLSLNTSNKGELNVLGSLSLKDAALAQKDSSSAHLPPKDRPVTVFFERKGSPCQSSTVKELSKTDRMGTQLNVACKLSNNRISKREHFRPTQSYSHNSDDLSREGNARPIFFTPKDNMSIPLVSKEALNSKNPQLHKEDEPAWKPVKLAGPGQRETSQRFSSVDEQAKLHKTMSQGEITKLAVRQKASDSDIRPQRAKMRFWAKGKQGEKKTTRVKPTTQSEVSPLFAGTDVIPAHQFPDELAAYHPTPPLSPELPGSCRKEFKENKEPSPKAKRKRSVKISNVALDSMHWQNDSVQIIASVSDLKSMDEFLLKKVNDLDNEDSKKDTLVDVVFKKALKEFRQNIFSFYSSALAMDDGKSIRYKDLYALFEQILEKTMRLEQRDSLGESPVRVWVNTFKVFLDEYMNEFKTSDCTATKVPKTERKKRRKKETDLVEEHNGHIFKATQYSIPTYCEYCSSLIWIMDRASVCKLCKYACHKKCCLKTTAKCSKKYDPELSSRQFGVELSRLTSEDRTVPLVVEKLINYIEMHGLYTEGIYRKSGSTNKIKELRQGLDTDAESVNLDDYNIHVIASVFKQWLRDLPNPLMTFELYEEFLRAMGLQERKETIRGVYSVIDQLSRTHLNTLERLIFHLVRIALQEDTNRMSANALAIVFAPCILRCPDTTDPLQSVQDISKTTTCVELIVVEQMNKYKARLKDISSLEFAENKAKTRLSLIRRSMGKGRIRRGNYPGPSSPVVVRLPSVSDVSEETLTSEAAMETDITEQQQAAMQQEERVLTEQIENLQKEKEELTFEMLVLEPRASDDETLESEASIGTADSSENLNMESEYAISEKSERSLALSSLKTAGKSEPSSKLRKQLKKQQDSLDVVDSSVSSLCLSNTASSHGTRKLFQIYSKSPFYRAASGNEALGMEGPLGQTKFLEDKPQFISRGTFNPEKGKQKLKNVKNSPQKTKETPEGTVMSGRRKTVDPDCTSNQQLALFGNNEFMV

Holding throughout (assay): log2 fold change, soluble protein after heating vs DMSO (PISA); higher = thermal stabilisation; K562 lysate, 10 uM; active = over 0.2 and 3.5 SD of the protein, either way, in both replicates (recomputed)
Compound in one assay: CS(=O)(=O)CCNCc1ccc(-c2ccc3ncnc(Nc4ccc(OCc5cccc(F)c5)c(Cl)c4)c3c2)o1 [lapatinib]
The procedure, abridged:
(§1)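 Soluble protein was defined as the supernatant remaining after 21,000xg for 90 min, following pooling of heated aliquots and adjustment to 0.5% NP-40 at 4°C. Before that, crude K562 extract at 1 mg/mL protein in PBS pH 7.4 with 1 mM MgCl2 was treated with 10 μM compound for 30 min and heated for 3 min across 48°C-58°C. Quantification used TMTpro 16plex LC-MS/MS with channel sums equalised, and values are log-two fold changes in thermal stability relative to solvent controls from duplicates.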

Compound in another assay: CS(=O)(=O)N1CCN(Cc2cc3nc(-c4cccc5[nH]ncc45)nc(N4CCOCC4)c3s2)CC1 [pictilisib]
The procedure, abridged: as §1

Compound in the next assay: C[C@@H](Oc1cc(-c2cnn(C3CCNCC3)c2)cnc1N)c1c(Cl)ccc(F)c1Cl [crizotinib]
The procedure, abridged:
as §1

Compound in assay [1]: C[C@H](C1=CC=C(C=C1)C(=O)NC2=C3C=CNC3=NC=C2)N
The procedure, abridged:
as §1

Compound in another assay: C[C@H](Nc1ncnc2nc[nH]c12)c1cc2cccc(Cl)c2c(=O)n1-c1ccccc1 [duvelisib]
The procedure, abridged: as §1

Compound in another assay: Cc1cc(Nc2cc(CN3CCOCC3)c3nc(C)c(Cc4ccc(Cl)cc4F)n3n2)n[nH]1 [gandotinib]
The procedure, abridged: as §1

Compound in a further assay: Cc1cc(Nc2cc(N3CCN(C)CC3)nc(Sc3ccc(NC(=O)C4CC4)cc3)n2)n[nH]1 [tozasertib]
The procedure, abridged:
as §1

Compound in another assay: Cc1ccc(-n2nc(C(C)(C)C)cc2NC(=O)Nc2ccc(OCCN3CCOCC3)c3ccccc23)cc1 [doramapimod]
The procedure, abridged:
as §1

Compound in a further assay: Cc1ccc(NC(=O)c2ccc(CN3CC[C@H](N(C)C)C3)c(C(F)(F)F)c2)cc1Nc1nccc(-c2cncnc2)n1 [bafetinib]
The procedure, abridged:
as §1

Compound in assay [2]: Cc1cccc(CC(=O)N2CCc3c2ccc(-c2cn(C)c4ncnc(N)c24)c3F)n1
The procedure, abridged:
as §1

Compound in a further assay: Cc1cn(-c2cc(NC(=O)c3ccc(C)c(Nc4nccc(-c5cccnc5)n4)c3)cc(C(F)(F)F)c2)cn1 [nilotinib]
The procedure, abridged: as §1

Compound in assay [3]: Cc1nc(Nc2n[nH]c3c2CN(C(=O)N[C@H](CN(C)C)c2ccccc2)C3(C)C)c2sccc2n1
The procedure, abridged:
as §1

Compound in another assay: Cc1nc(Nc2ncc(C(=O)Nc3c(C)cccc3Cl)s2)cc(N2CCN(CCO)CC2)n1 [dasatinib]
The procedure, abridged:
as §1

Compound in assay [4]: Cc1ncc(-c2ccnc(Nc3ccc(S(C)(=O)=O)cc3)n2)n1C(C)C
The procedure, abridged:
as §1

Compound in assay [5]: Cn1cc(-c2ccc3c(c2)CCN3C(=O)Cc2cccc(C(F)(F)F)c2)c2c(N)ncnc21
The procedure, abridged:
as §1

Compound in the next assay: Cn1cc(CNCC2CCN(c3ncc(C(=O)NO)cn3)CC2)c2ccccc21 [quisinostat]
The procedure, abridged: as §1

Compound in another assay: Cn1cncc1[C@@](N)(c1ccc(Cl)cc1)c1ccc2c(c1)c(-c1cccc(Cl)c1)cc(=O)n2C [tipifarnib]
The procedure, abridged:
as §1

Compound in assay [6]: NC(=O)Nc1cc(-c2cccc(F)c2)sc1C(=O)N[C@H]1CCCNC1
The procedure, abridged: as §1

Compound in assay [7]: NC(=O)c1cnc(N[C@@H]2CCCC[C@@H]2N)nc1Nc1cccc(-n2nccn2)c1
The procedure, abridged: as §1

Compound in assay [8]: NC1(c2ccc(-c3nc4ccn5c(=O)[nH]nc5c4cc3-c3ccccc3)cc2)CCC1
The procedure, abridged: as §1

Some of the results follow.

Turning to NCKAP1L (UniProt P55160), the log2 fold change is inactive: 0 in the assay with lapatinib; inactive: 0 with pictilisib; inactive: -0.061 with crizotinib; inactive: -0.002 in assay [1]; inactive: 0.02 in the assay with duvelisib; inactive: 0.025 in the assay with gandotinib. Moreover, the log2 fold change with tozasertib is inactive: 0.018; with doramapimod, inactive: -0.011; with bafetinib, inactive: -0.324; in assay [2], inactive: 0.017; in the assay with nilotinib, inactive: 0.001; in assay [3] it was inactive: -0.017. The log2 fold change with dasatinib was inactive: -0.034; in assay [4], inactive: 0.072; in assay [5], inactive: 0.005; in the assay with quisinostat, inactive: -0.034; with tipifarnib, inactive: 0.032; in assay [6] it was inactive: 0.055. In addition, the log2 fold change is inactive: 0.017 in [7] and inactive: 0.023 in [8].
With MYL6 (UniProt G3V1V0), the log2 fold change with lapatinib was inactive: 0.049; with crizotinib, inactive: 0.029; in assay [1] it was inactive: 0; with duvelisib it was inactive: 0.023; with gandotinib, inactive: 0.014; in the assay with tozasertib, inactive: 0.03. Moreover, the log2 fold change with doramapimod was inactive: 0.055; in [2], inactive: 0.049; with nilotinib it was inactive: 0.011; in [3], inactive: 0.118; with dasatinib, inactive: -0.004; in assay [4], inactive: 0.087. Moreover, the log2 fold change was inactive: -0.036 in assay [5]; inactive: -0.088 in the assay with quisinostat; inactive: -0.057 with tipifarnib; inactive: -0.04 in assay [6]; inactive: 0.042 in [7]; inactive: -0.091 in assay [8].
On to NAA16 (UniProt Q6N069), for which the log2 fold change with lapatinib is inactive: 0.048; with pictilisib, inactive: -0.108; with duvelisib, inactive: 0.029; with tozasertib, inactive: -0.016; with bafetinib, inactive: 0.022; in the assay with nilotinib, inactive: 0.068. The log2 fold change in assay [3] was inactive: -0.139; with dasatinib it was inactive: -0.042; in assay [4], inactive: 0.039; in [5], inactive: 0.071; with tipifarnib, inactive: -0.015; in assay [7] it was inactive: 0.08.
As to MYLK3 (UniProt Q32MK0), the log2 fold change in the assay with lapatinib is inactive: 0.081; in the assay with pictilisib, inactive: -0.035; with crizotinib, inactive: -0.023; in assay [1], inactive: 0.219; in the assay with gandotinib it was inactive: -0.333; in the assay with doramapimod it was inactive: -0.001. Further, the log2 fold change with bafetinib is inactive: -0.085; in [2], inactive: -0.436; with nilotinib, inactive: -0.18; in assay [3] it was inactive: -0.211; in assay [4], inactive: 0.262; with quisinostat, inactive: -0.022. The log2 fold change with tipifarnib is inactive: -0.076; in assay [6], inactive: -0.019; in [7], inactive: 0.001; in assay [8], inactive: -0.03.
In the case of NBDY, A0A0U1RRE5, the log2 fold change was inactive: 0.069 with lapatinib; inactive: -0.074 in the assay with pictilisib; inactive: 0.078 with crizotinib; inactive: 0.059 in assay [1]; inactive: 0.062 with duvelisib; inactive: -0.037 in the assay with gandotinib. The log2 fold change with doramapimod was inactive: -0.348; with bafetinib, inactive: -0.025; in assay [2], inactive: -0.128; in the assay with nilotinib, inactive: -0.199; in [3], inactive: -0.11; in the assay with dasatinib it was inactive: 0.098. Also, the log2 fold change was inactive: 0.112 in [4]; inactive: -0.127 in assay [5]; inactive: -0.069 with quisinostat; inactive: 0.102 with tipifarnib; inactive: 0.168 in assay [6]; inactive: 0.006 in assay [7]. Besides, the log2 fold change in assay [8] was inactive: -0.103.
Regarding NASP isoform 2 (UniProt P49321), the log2 fold change with lapatinib was inactive: 0.197; with pictilisib, inactive: 0.017; in [1] it was inactive: 0.865; with gandotinib, inactive: -0.608; in the assay with bafetinib, inactive: -0.12; in assay [2] it was inactive: -0.606. Also, the log2 fold change in assay [7] is inactive: 0.111.
N4BP2 (UniProt Q86UW6): the log2 fold change with lapatinib is inactive: 0.003; with pictilisib, inactive: 0.054; in the assay with crizotinib, inactive: 0.002; in assay [1], active: -0.236; with duvelisib, inactive: 0.028; with gandotinib it was inactive: 0.014. The log2 fold change is inactive: -0.032 with tozasertib; inactive: -0.015 with doramapimod; inactive: -0.038 in the assay with bafetinib; inactive: 0.149 in [2]; inactive: 0.026 with nilotinib; inactive: 0.036 in [3]. Also, the log2 fold change was inactive: -0.024 with dasatinib; inactive: -0.043 in [4]; inactive: 0.061 in [5]; inactive: -0.001 with quisinostat; inactive: -0.061 in the assay with tipifarnib; inactive: 0.037 in assay [6]. Moreover, the log2 fold change in assay [7] was inactive: -0.018; in assay [8] it was inactive: -0.048.
Take MYO9A isoform 4 (UniProt B2RTY4): the log2 fold change with lapatinib was inactive: -0.027; with pictilisib, inactive: 0.022; in the assay with crizotinib, inactive: -0.03; in [1], inactive: -0.014; with duvelisib, inactive: -0.019; with gandotinib it was inactive: -0.044. Also, the log2 fold change is inactive: 0.005 in the assay with doramapimod; inactive: -0.103 with bafetinib; inactive: 0.036 in [2]; inactive: 0.059 in the assay with nilotinib; inactive: -0.044 in [3]; inactive: -0.176 in the assay with dasatinib. For the same target, the log2 fold change is inactive: 0 in assay [4]; inactive: 0.052 in [5]; inactive: -0.074 with quisinostat; inactive: -0.005 in the assay with tipifarnib; inactive: 0.112 in [6]; inactive: 0.039 in [7]. The log2 fold change in assay [8] was inactive: -0.112.
